Data: the supplement of paper PMC10849652
The list shows a part of the results.

The chains behind the UniProt entries cited, without tags or fusion partners. Where a name states a change or a piece, a line headed by the entry shows the natural chain unless it says otherwise.
UniProt Q96BS2: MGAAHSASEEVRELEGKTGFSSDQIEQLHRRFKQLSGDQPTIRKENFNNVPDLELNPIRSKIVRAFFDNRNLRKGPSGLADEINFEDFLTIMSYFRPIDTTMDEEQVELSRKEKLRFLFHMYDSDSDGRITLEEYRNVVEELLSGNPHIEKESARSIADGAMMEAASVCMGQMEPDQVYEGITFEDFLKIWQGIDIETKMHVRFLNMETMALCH
UniProt Q13428: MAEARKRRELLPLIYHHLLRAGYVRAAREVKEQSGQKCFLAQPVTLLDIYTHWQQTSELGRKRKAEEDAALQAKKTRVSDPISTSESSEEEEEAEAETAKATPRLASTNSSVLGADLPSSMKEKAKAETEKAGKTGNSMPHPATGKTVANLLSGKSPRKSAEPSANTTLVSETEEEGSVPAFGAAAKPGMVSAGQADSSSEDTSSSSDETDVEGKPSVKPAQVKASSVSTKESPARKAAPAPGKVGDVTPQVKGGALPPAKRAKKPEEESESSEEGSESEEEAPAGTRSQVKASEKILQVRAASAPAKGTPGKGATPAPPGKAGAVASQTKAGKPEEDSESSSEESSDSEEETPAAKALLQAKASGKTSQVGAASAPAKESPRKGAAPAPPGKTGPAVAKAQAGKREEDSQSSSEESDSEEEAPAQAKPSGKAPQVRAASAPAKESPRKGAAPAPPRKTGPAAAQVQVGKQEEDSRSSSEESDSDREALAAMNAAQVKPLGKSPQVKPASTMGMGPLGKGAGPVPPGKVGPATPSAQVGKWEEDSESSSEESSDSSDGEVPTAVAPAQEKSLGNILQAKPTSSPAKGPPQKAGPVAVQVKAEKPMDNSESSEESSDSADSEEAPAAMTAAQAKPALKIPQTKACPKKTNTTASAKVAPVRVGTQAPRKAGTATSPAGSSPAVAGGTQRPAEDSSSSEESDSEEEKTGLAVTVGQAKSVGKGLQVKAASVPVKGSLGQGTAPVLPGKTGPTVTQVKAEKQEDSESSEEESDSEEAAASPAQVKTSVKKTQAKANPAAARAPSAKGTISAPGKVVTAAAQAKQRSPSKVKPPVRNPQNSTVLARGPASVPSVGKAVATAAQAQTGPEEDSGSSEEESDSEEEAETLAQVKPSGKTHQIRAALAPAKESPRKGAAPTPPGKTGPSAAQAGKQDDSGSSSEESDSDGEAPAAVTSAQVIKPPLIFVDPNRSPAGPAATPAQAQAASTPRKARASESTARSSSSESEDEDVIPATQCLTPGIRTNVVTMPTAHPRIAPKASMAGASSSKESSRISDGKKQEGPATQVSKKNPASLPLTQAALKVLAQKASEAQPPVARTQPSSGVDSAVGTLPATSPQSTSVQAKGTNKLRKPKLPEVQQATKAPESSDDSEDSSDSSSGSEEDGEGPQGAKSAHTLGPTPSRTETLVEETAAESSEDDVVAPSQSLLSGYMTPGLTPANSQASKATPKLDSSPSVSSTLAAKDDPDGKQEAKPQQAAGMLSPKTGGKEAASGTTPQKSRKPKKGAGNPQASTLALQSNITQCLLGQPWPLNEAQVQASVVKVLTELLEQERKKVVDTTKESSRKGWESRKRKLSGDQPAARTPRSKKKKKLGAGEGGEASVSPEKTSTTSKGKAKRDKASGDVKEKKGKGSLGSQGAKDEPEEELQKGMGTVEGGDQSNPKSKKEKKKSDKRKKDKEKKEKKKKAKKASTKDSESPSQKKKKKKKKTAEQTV
UniProt Q96BZ9: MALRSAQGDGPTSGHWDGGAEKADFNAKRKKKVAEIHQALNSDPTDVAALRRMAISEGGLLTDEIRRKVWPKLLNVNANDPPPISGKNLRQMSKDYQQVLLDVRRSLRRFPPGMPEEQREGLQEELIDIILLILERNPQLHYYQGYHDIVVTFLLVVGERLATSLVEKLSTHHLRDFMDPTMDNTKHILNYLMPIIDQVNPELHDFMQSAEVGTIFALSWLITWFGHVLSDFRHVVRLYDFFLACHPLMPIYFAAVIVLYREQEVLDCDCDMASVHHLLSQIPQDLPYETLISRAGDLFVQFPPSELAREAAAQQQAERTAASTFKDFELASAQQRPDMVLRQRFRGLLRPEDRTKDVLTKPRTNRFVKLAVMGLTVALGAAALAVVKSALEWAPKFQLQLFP
UniProt Q9UGI8: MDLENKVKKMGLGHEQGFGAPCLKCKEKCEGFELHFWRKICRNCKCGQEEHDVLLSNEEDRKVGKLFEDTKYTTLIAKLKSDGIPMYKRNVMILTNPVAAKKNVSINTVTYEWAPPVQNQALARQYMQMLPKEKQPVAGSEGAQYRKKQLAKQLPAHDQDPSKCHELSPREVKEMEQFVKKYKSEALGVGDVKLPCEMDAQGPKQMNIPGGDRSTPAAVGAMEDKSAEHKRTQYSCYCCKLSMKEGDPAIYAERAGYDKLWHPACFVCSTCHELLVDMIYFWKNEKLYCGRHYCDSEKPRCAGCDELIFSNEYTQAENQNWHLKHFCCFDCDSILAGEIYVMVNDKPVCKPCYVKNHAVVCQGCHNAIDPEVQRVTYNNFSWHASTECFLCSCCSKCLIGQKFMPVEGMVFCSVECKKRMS
UniProt Q9P016: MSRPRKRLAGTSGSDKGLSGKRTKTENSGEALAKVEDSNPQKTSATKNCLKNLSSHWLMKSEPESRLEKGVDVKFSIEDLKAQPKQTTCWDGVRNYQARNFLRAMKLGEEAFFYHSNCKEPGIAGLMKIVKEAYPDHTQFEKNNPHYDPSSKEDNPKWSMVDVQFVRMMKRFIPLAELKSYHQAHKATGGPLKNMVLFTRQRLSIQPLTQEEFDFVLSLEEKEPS
UniProt Q9Y5J9: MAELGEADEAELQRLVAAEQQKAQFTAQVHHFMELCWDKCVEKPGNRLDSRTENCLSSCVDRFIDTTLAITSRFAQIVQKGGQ
UniProt Q15814: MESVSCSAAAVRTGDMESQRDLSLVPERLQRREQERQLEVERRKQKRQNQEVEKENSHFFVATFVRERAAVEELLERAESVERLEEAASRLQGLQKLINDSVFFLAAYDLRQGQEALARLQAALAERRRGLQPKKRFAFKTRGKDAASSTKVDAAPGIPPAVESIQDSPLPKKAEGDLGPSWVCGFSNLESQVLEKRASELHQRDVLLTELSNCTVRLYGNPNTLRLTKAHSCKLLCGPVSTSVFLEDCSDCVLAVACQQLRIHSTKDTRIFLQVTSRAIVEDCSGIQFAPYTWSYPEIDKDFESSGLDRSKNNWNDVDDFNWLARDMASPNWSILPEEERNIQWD
UniProt Q6I9Y2: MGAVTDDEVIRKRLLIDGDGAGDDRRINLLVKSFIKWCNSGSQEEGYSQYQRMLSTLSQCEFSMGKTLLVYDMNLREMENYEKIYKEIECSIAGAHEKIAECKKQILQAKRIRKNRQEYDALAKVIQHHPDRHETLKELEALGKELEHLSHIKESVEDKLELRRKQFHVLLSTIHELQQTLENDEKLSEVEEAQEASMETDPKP
UniProt Q9Y5L4: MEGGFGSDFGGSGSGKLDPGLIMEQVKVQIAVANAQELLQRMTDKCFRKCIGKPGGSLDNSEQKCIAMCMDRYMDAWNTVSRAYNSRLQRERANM
UniProt Q8WUA7: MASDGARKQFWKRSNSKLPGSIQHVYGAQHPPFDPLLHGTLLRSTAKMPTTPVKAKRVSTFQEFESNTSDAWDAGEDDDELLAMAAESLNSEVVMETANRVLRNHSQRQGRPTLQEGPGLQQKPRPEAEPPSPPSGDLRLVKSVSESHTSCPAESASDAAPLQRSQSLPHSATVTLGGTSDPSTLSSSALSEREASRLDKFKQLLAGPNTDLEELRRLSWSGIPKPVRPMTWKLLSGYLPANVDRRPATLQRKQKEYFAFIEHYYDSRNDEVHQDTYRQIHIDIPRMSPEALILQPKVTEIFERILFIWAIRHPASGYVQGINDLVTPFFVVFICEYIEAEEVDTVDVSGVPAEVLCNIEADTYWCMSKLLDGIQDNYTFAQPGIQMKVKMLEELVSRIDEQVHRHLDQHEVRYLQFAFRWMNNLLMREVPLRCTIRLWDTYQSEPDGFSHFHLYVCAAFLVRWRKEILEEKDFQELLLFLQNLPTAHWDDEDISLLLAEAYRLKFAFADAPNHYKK
UniProt P62072: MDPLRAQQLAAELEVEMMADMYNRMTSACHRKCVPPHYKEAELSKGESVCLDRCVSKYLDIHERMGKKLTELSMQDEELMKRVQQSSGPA
UniProt P29401: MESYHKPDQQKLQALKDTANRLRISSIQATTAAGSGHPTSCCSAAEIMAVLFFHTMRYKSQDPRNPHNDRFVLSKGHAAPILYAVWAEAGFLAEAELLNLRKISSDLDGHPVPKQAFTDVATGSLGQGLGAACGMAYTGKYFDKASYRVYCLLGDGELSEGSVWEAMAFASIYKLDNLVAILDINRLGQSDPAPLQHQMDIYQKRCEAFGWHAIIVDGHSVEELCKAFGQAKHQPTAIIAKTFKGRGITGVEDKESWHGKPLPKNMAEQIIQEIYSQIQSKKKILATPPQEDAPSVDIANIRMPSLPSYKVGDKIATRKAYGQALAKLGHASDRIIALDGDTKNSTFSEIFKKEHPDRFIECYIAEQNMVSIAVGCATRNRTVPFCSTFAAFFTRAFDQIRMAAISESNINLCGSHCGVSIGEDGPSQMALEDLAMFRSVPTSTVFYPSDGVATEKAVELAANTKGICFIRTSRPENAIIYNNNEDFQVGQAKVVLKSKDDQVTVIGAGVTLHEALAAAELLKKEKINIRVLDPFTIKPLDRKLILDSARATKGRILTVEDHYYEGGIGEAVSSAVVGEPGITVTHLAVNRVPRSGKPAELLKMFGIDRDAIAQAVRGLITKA
UniProt Q9NWX6: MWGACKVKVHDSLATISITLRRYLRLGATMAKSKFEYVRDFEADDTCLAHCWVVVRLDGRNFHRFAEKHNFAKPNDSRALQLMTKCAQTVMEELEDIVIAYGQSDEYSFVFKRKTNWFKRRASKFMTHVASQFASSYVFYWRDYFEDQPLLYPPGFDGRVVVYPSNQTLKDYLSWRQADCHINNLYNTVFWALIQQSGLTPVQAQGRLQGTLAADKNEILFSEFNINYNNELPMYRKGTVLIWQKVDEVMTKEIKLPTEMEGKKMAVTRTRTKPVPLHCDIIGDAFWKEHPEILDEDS
UniProt O14925: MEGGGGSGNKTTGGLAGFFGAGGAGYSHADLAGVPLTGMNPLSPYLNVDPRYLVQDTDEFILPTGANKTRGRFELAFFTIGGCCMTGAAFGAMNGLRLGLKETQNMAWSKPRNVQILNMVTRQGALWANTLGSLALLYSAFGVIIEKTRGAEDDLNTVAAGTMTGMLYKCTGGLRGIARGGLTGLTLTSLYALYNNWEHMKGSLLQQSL
UniProt P19532: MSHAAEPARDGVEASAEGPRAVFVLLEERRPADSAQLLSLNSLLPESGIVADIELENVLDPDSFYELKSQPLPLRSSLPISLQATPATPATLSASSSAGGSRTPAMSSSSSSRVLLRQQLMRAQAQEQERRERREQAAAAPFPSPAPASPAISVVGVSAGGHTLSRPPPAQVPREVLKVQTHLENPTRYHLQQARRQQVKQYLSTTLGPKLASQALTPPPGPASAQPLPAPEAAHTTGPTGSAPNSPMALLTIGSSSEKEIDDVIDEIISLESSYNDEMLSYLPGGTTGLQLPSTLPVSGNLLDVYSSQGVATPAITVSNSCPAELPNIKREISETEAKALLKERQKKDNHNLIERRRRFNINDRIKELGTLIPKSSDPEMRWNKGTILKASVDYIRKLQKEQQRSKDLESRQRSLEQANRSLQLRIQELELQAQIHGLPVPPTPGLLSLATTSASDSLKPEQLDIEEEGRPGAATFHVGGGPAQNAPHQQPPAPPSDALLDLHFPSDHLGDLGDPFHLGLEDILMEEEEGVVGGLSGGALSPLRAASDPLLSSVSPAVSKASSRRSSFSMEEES
UniProt Q9BVV7: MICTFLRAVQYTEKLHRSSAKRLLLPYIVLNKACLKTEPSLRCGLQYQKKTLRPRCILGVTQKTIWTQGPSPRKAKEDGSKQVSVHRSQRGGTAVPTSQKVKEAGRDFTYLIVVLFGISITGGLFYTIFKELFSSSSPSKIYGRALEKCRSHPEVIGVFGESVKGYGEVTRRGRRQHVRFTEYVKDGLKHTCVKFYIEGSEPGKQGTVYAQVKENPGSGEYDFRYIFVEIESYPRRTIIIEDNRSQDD
UniProt Q99595: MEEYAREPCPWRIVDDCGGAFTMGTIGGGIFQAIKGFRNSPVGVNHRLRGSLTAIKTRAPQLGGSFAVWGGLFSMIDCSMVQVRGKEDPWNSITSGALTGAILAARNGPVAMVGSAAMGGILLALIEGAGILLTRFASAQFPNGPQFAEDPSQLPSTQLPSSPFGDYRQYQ
UniProt Q01085: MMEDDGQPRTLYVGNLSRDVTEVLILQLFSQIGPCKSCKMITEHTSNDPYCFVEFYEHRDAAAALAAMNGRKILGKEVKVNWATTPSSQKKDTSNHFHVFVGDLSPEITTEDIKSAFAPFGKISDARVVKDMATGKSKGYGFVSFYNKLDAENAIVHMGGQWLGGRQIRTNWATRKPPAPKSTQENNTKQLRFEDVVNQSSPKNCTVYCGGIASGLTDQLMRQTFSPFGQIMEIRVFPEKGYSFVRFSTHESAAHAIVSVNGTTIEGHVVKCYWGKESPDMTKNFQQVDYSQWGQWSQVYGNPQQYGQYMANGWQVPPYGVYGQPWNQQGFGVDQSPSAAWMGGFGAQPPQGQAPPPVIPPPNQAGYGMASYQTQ

Tests used:
Test in all cases: log2 fold change, soluble protein after heating vs DMSO (PISA); higher = thermal stabilisation; K562 cells, 10 uM, 30 min; active = over 0.2 and 3.5 SD of the protein, either way, in both replicates (recomputed)
[1] = compound: CC1=C(C=C(C=C1)NC(=O)C2=CC(=CC=C2)C(C)(C)C#N)NC3=CC4=C(C=C3)N=CN(C4=O)C
Procedure, shortened: (§1)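 K562 cells at 2×10^6 cells/mL were given 10 μM compound for 30 min. Aliquots then went through 3 min of heating across 48°C-58°C, were pooled, and were extracted in PBS with 0.5% NP-40 at 4°C, and the supernatant after 21,000xg for 90 min was quantified by TMTpro 16plex LC-MS/MS with channel sums equalised. Thermal stability relative to control samples, from duplicates, is given as log2 fold change.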

[2] = compound: CC1=C(C=C(C=C1)NC(=O)C2=CC(=CC=C2)N(C)C)NC(=O)C3=CC=C(C=C3)O
Procedure, shortened: as §1

[3] = compound: CC1=CC=C(C=C1)SC2=C3C=C(SC3=CN=C2)C(=O)N
Procedure, shortened: as §1

[4] = compound: CC1=NC(=CC=C1)C2=C(N=C(N2)C(C)(C)C)C3=CC4=NC=CN=C4C=C3
Procedure, shortened: as §1

Nexturastat A = compound: CCCCN(Cc1ccc(C(=O)NO)cc1)C(=O)Nc1ccccc1 [Nexturastat A]
Procedure, shortened: as §1

vemurafenib = compound: CCCS(=O)(=O)Nc1ccc(F)c(C(=O)c2c[nH]c3ncc(-c4ccc(Cl)cc4)cc23)c1F [vemurafenib]
Procedure, shortened: as §1

[5] = compound: CCCS(=O)(=O)Nc1ccc(F)c(C(=O)c2c[nH]c3ncc(Cl)cc23)c1F
Procedure, shortened: as §1

[6] = compound: CCCc1cc(C)[nH]c(=O)c1CNC(=O)c1cc(-c2ccnc(N3CCN(C)CC3)c2)cc2c1cnn2C(C)C
Procedure, shortened: as §1

givinostat = compound: CCN(CC)Cc1ccc2cc(COC(=O)Nc3ccc(C(=O)NO)cc3)ccc2c1 [givinostat]
Procedure, shortened: as §1

barasertib = compound: CCN(CCCOc1ccc2c(Nc3cc(CC(=O)Nc4cccc(F)c4)[nH]n3)ncnc2c1)CCOP(=O)(O)O [barasertib]
Procedure, shortened: as §1

Measured: log2 fold change

TESC (UniProt Q96BS2)
inactive: [1] -0.009 | [2] -0.028 | [3] -0.008 | [4] -0.039 | Nexturastat A -0.032 | vemurafenib 0.045 | [5] 0.019 | [6] -0.021 | givinostat 0.002 | barasertib 0.026

TKT, A0A0B4J1R6
inactive: [1] 0.055 | [2] 0.05 | [3] 0.094 | [4] 0.039 | Nexturastat A -0.101 | vemurafenib -0.085 | [5] -0.036 | [6] -0.058 | givinostat -0.034 | barasertib 0.039

TCOF1 isoform 4 (UniProt Q13428)
inactive: [1] -0.03 | [2] 0.015 | [3] -0.028 | [4] -0.019 | Nexturastat A -0.001 | vemurafenib -0.029 | [5] -0.012 | [6] -0.004 | givinostat 0.056 | barasertib 0.006

TBC1D20 isoform 3 (UniProt Q96BZ9)
inactive: [1] -0.048 | [2] 0.04 | [3] 0.128 | [4] 0.037 | Nexturastat A 0 | vemurafenib 0.083 | [5] 0.166 | [6] -0.14 | givinostat 0.076 | barasertib 0.034

TES (UniProt Q9UGI8)
inactive: [1] 0.003 | [2] 0.004 | [3] 0.012 | [4] 0.016 | Nexturastat A -0.022 | vemurafenib 0.023 | [5] 0.014 | [6] -0.004 | givinostat -0.058 | barasertib 0.023

THUMPD2 (UniProt Q9BTF0)
inactive: [1] -0.004 | [2] -0.044 | [3] 0.065 | [4] 0.043 | Nexturastat A 0.075 | vemurafenib -0.042 | [5] 0.011 | [6] -0.014 | givinostat -0.025 | barasertib 0.034

THYN1 (UniProt Q9P016)
inactive: [1] 0.008 | [2] 0.013 | [3] 0.003 | [4] 0.056 | Nexturastat A -0.022 | vemurafenib -0.004 | [5] -0.004 | [6] 0.003 | givinostat -0.135 | barasertib 0.008

TIMM8B (UniProt Q9Y5J9)
inactive: [1] 0.106 | [2] -0.095 | [3] -0.122 | [4] 0.319 | Nexturastat A 0.131 | vemurafenib -0.153 | [5] 0.066 | [6] 0.037 | givinostat 0.184 | barasertib 0.062

TBCC (UniProt Q15814)
inactive: [1] 0.033 | [2] -0.038 | [3] 0.005 | [4] 0.007 | Nexturastat A -0.048 | vemurafenib 0.028 | [5] 0.06 | [6] -0.019 | givinostat -0.003 | barasertib -0.012

THOC7 (UniProt Q6I9Y2)
inactive: [1] -0.042 | [2] 0.002 | [3] -0.038 | [4] 0.002 | Nexturastat A 0.027 | vemurafenib 0.029 | [5] -0.05 | [6] 0.005 | givinostat 0.044 | barasertib 0.046

TIMM13 (UniProt Q9Y5L4)
inactive: [1] 0.086 | [2] -0.048 | [3] 0.03 | [4] 0.143 | Nexturastat A -0.19 | vemurafenib 0.072 | [5] 0.015 | [6] 0.085 | givinostat 0.089 | barasertib -0.035

TBC1D22A (UniProt Q8WUA7)
inactive: [1] -0.041 | [2] 0.055 | [3] 0.036 | [4] -0.058 | Nexturastat A -0.067 | vemurafenib 0.046 | [5] 0.052 | [6] -0.028 | givinostat -0.005 | barasertib -0.015

THBS4 (UniProt P35443)
inactive: [1] -0.081 | [2] 0.13 | [3] 0.085 | [4] 0.152 | Nexturastat A 0 | vemurafenib 0.144 | [5] -0.116 | [6] -0.35 | givinostat -0.067 | barasertib -0.023

TIMM10 (UniProt P62072)
inactive: [1] 0.031 | [2] -0.078 | [3] 0.018 | [4] 0.045 | Nexturastat A -0.124 | vemurafenib 0.058 | [5] -0.093 | [6] -0.049 | givinostat -0.05 | barasertib 0.022

TBC1D5 isoform 2 (UniProt Q92609)
inactive: [1] -0.051 | [2] -0.048 | [3] -0.013 | [4] 0.018 | Nexturastat A 0.01 | vemurafenib 0.048 | [5] 0.112 | [6] -0.033 | givinostat 0.049 | barasertib 0.022

Pulled one by one from above (2):
TBC1D5 isoform 2 (UniProt Q92609)
inactive: [1] -0.051 | [2] -0.048 | [3] -0.013 | [4] 0.018 | Nexturastat A 0.01 | vemurafenib 0.048 | [5] 0.112 | [6] -0.033 | givinostat 0.049 | barasertib 0.022

THBS4 (UniProt P35443)
inactive: [1] -0.081 | [2] 0.13 | [3] 0.085 | [4] 0.152 | Nexturastat A 0 | vemurafenib 0.144 | [5] -0.116 | [6] -0.35 | givinostat -0.067 | barasertib -0.023

Remaining list, next part

TBC1D22B (UniProt Q9NU19)
inactive: [1] 0.015 | [2] 0.006 | [3] 0.019 | [4] 0.311 | Nexturastat A -0.201 | vemurafenib -0.062 | [5] 0.039 | [6] -0.008 | givinostat 0.087 | barasertib 0.044

TKT isoform 2 (UniProt P29401)
inactive: [1] 0.001 | [2] 0.021 | [3] 0.023 | [4] 0.019 | Nexturastat A -0.073 | vemurafenib 0.032 | [5] -0.015 | [6] 0.051 | givinostat -0.016 | barasertib 0

THG1L (UniProt Q9NWX6)
inactive: [1] -0.017 | [2] 0.005 | [3] 0.013 | [4] 0.044 | Nexturastat A -0.047 | vemurafenib -0.004 | [5] 0.006 | [6] -0.028 | givinostat -0.02 | barasertib 0.015

TIMM23 (UniProt O14925)
inactive: [1] -0.022 | [2] 0.001 | [3] -0.024 | [4] 0.111 | Nexturastat A 0.013 | vemurafenib 0.053 | [5] 0.044 | [6] -0.048 | givinostat -0.005 | barasertib -0.022

TFE3 (UniProt P19532)
inactive: [1] 0 | [2] 0.052 | [4] 0.102 | Nexturastat A 0.034 | givinostat 0.062 | barasertib 0.048

TK2 isoform 6 (UniProt O00142)
inactive: [1] -0.217 | [2] 0.001 | [4] -0.127 | Nexturastat A -0.172 | vemurafenib -0.073 | [6] -0.024 | givinostat -0.207 | barasertib 0.024

TEX264 (UniProt Q9Y6I9)
inactive: [1] 0.053 | [2] -0.016 | [3] -0.008 | [4] 0.013 | Nexturastat A 0.023 | vemurafenib -0.002 | [5] -0.049 | [6] 0.014 | givinostat 0.317 | barasertib 0.032

TIMM21 (UniProt Q9BVV7)
inactive: [1] 0.014 | [2] 0.008 | [3] 0.035 | [4] 0.058 | Nexturastat A -0.121 | vemurafenib 0.032 | [5] 0.067 | [6] -0.005 | givinostat 0.005 | barasertib 0.034

TFPI (UniProt P10646)
inactive: [1] 0.078 | [2] -0.42 | [4] -0.091 | Nexturastat A -0.002 | vemurafenib 0.039 | [6] -0.235 | givinostat -0.144 | barasertib -0.039

TCOF1 isoform 3 (UniProt Q13428)
inactive: [1] -0.051 | [2] 0.262 | Nexturastat A -0.429 | givinostat 0.047

TIMM17A (UniProt Q99595)
inactive: [1] 0.022 | [2] 0.031 | [3] 0.062 | [4] -0.026 | Nexturastat A -0.069 | vemurafenib 0.025 | [5] 0.021 | [6] -0.047 | givinostat 0.037 | barasertib -0.009

TIAL1 isoform 2 (UniProt Q01085)
inactive: [1] -0.009 | [2] 0.015 | [3] -0.019 | [4] 0.08 | Nexturastat A 0.005 | vemurafenib 0.023 | [5] 0.002 | [6] -0.007 | givinostat -0.022 | barasertib -0.021

TECR (UniProt Q9NZ01)
inactive: [1] -0.017 | [2] -0.034 | [3] 0.031 | [4] 0.069 | Nexturastat A -0.043 | vemurafenib 0.021 | [5] 0.113 | [6] -0.084 | givinostat 0.011 | barasertib 0.007

TCOF1 isoform 6 (UniProt Q13428)
inactive: [1] 0.148 | [2] -0.078 | [4] -0.105 | vemurafenib 0.146 | [6] 0.545 | givinostat -0.024 | barasertib 0.008
